# Assay results published in PMC6378214.
# Chains of the proteins cited; added tags and fusions are not shown.
# UniProt P60903: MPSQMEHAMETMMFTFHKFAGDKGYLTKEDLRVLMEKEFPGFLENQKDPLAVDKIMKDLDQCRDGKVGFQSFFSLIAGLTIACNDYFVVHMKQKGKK
# UniProt P07355: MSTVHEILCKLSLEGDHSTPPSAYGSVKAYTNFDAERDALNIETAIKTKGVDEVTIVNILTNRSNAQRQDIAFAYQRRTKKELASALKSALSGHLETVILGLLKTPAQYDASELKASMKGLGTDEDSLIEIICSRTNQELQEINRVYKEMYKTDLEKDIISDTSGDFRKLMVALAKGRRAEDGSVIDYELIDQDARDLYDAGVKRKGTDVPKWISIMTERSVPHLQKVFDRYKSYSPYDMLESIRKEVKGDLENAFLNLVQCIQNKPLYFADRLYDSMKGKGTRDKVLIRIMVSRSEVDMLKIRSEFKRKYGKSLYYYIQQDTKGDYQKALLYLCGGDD
# Results are given in words; binding and its absence hold for the method and conditions named. In cells and extracts the contact can be indirect. Some results given as binding are weak or reduced against the parent protein; the word gives no strength.
# Legend:
# [1] = molecular target: S100A10 (human (endogenous in HCC cell lines)) (UniProt P60903); assay: co-IP; precipitation with S100A10 antibody in ANXA2 overexpressing cells
# [2] = molecular target: Annexin A2 (ANXA2), endogenous (human (endogenous in HCC cell lines)) (UniProt P07355); assay: co-IP; ANXA2 precipitated, S100A10 detected; LUCAT1 knockdown cells and LUCAT1 overexpressing cells
binding [1],binding [2],Substance
binds,,"Annexin A2 (ANXA2), overexpressed full-length (from UniProt P07355 1-339)"
,binds,S100A10 (from UniProt P60903 1-97)
